Measured values published in patent US6593098.
Results are given in words; binding and its absence hold for the method and conditions named. Some binding calls cover weakened binding; strength is not graded here.

Sequences of proteins named here, by UniProt entry; tags and fusion partners are left off. A change or cut given only in a name is not applied to a line headed by its entry.
UniProt O43683: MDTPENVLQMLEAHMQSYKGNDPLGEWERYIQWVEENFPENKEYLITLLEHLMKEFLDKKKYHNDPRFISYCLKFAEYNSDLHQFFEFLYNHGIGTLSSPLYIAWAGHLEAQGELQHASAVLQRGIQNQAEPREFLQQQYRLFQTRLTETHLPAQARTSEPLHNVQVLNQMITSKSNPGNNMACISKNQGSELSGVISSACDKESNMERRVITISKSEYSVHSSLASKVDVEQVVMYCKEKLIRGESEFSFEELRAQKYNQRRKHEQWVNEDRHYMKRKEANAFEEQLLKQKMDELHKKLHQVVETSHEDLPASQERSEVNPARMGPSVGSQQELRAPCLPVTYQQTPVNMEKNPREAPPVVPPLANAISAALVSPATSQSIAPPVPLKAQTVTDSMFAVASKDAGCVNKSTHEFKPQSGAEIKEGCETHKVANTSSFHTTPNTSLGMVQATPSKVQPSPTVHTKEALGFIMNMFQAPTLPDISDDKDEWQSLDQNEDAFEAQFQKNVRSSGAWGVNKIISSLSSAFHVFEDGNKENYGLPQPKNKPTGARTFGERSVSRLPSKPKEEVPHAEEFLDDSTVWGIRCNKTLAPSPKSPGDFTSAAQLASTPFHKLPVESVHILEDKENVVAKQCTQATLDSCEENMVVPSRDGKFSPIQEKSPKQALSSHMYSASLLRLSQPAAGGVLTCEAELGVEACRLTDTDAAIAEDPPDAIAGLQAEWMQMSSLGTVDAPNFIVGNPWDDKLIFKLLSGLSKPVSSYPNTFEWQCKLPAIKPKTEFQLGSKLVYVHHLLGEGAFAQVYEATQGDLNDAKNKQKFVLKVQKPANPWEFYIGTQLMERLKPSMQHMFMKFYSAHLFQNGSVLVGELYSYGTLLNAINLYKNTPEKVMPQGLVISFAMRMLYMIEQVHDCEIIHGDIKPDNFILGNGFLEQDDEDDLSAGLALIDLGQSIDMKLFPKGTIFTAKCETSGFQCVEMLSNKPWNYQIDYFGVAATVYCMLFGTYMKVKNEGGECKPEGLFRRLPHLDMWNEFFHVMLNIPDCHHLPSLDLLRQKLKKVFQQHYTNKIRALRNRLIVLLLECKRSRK

Target: T1, CENP-F (UniProt P49454)
T1 sequence (looked up): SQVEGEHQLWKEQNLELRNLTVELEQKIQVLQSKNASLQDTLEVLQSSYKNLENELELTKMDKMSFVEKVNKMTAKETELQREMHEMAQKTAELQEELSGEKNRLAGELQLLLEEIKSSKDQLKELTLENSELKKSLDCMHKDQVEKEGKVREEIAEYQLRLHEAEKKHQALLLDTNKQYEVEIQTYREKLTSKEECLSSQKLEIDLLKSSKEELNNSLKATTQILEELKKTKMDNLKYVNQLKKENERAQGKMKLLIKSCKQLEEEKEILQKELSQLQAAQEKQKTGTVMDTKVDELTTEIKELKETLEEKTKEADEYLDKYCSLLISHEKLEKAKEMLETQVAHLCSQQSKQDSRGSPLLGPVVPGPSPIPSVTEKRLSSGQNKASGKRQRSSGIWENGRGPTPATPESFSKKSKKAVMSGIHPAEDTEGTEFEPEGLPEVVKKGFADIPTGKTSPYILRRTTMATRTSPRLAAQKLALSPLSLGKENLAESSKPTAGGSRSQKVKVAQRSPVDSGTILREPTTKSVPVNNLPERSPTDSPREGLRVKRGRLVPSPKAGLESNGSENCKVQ
Assay: specificity test, method not named in the sentence (probably yeast two-hybrid)

- binding: binds
Substance: human BUB1B kinase (from UniProt O43683 1-1085) (enzyme)
